Measurements: PubChem BioAssay AID504834 (National Center for Advancing Translational Sciences (NCATS), 2011)
Screen size: about 320,000 compounds; about 22,000 (6.9%) were called active. Inconclusive means that the source gave no clear call. Such entries were picked first, then a sample of the others. Calls follow the shape of the dose curve; as a rule, active = well fitted inhibition curve with a large enough effect; inconclusive = small, poorly fitted or top-dose-only effect, or another doubt; inactive = no such curve, though single readings can be large or run the other way. Where the call is inconclusive, the potency comes from a doubtful curve fit.

Test: Primary qHTS for delayed death inhibitors of the malarial parasite plastid, 96 hour incubation
Conditions: P. falciparum luciferase reporter growth; series mostly up to 28.7 µM; activity change, negative = inhibition: at the top concentration
Summary of the method: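 Cell-based qHTS: luciferase-tagged P. falciparum in erythrocytes (2% hematocrit, 0.05% parasitemia final) incubated with compounds for 96 hours, 37 C, 5% CO2; luciferase detection reagent then added and luminescence measured.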
% is scaled to controls: 0 for no effect and ±100 for the full control effect; potency is read from the fitted curve at half-maximal effect.

Compound | activity change, negative = inhibition | Potency
COc1cc2[nH]c(=O)n(CCC(=O)N3CCN(c4cc(Cl)ccc4C)CC3)c(=O)c2cc1OC | inactive: -0.423% | –
O=C(NCc1ccco1)c1ccc2c(c1)N(Cc1ccccc1)CCS2 | – | inconclusive: 18.5 µM [inhibitor, single point]
COc1cccc2sc(Nc3nc(-c4ccccn4)cs3)nc12 | – | inconclusive: 13.1 µM [inhibitor, single point]
COC(=O)c1ccc(COc2ccc(/C=C(\C#N)c3nc4ccccc4[nH]3)cc2OC)o1 | – | inconclusive: 1.04 µM [inhibitor, partial curve, poor fit]
O=C1Cc2cc(S(=O)(=O)N3CCN(c4ccccc4)CC3)ccc2N1 | – | inconclusive: 8.28 µM [inhibitor, partial curve, poor fit]
COc1ccc(C(=O)C2CCCN(Cc3ccc(F)cc3F)C2)cc1F (configuration not stated) | – | inconclusive: 18.5 µM [inhibitor, single point]
C/C(=N\NC(=O)CSc1nc(C)cc(C)n1)c1cccs1 | – | inconclusive: 4.15 µM [inhibitor, partial curve]
O=C(c1ccc(F)cc1)C1CCN(C(=O)Nc2ccc(F)cc2)CC1 | – | inconclusive: 7.38 µM [inhibitor, partial curve, poor fit]
CC(=O)Nc1cccc(C(=O)N2CCC(n3nccc3NC(=O)CC(C)C)CC2)c1 | inactive: 32.4% | –
CCC(C(=O)NCCCN1CCCC1=O)n1c2ccccc2c2nc(=O)cc(C)n21 (configuration not stated) | – | inconclusive: 18.5 µM [inhibitor, single point]
COc1ccc2[nH]c3c(=O)n(CCCCC(=O)NCCC(C)C)c(=S)[nH]c3c2c1 | – | active: 5.22 µM
CC12CCC(=O)N1C(C(=O)Nc1ccc(F)c(Cl)c1)CS2 (configuration not stated) | inactive: 22.4% | –
CCCOc1ccccc1N/C(=N/c1nc(C)cc(C)n1)NC(=O)Nc1ccc(Cl)cc1 | inactive: 28% | –
CCCCN(C(=O)c1cccc2c(=O)c(C)c(-c3ccccc3)oc12)c1ccccc1 | – | active: 4.15 µM
CCOc1ccc(C(C)NC(=O)c2cccnc2OCC)cc1OCC (configuration not stated) | – | inconclusive: 10.4 µM [inhibitor, single point]
COc1ccc(C2c3c(ccc4ccccc34)Oc3ncn4nc(-c5ccco5)nc4c32)cc1 (configuration not stated) | – | active: 3.7 µM
Cc1c(/C=N\NC(=O)C2COc3ccc(C(C)(C)C)cc3O2)c2ccccc2n1C (configuration not stated) | – | inconclusive: 9.28 µM [inhibitor, single point]
CC1(c2ccc([N+](=O)[O-])cc2)NC(=O)N(CC(=O)Nc2cccnc2Cl)C1=O (configuration not stated) | – | active: 11.7 µM
CC(=O)Nc1ccc(NC(=O)CN(C)CC(=O)Nc2ccccc2Br)cc1 | – | inconclusive: 1.85 µM [inhibitor, single point]
O=C(c1cnsn1)N1CCC(CO)(Cc2ccc(Cl)cc2)CC1 | – | inconclusive: 4.65 µM [inhibitor, partial curve, poor fit]
O=C(Nc1cccnc1)c1cc(-c2cccs2)on1 | – | active: 10.4 µM
COc1ccccc1-n1c(O)c(/C=C2\C=Nc3ccccc32)c(=O)[nH]c1=O | – | inconclusive: 9.28 µM [inhibitor, single point]
COc1ccc(/C=C/C(=O)Nc2cccc(N3CCOCC3)c2)cc1OC | – | inconclusive: 6.57 µM [inhibitor, partial curve, poor fit]

Compound | activity change, negative = inhibition | Potency
Cc1ccc(-c2nc(SCC(=O)NCC3CCCO3)c(-c3ccc(Cl)cc3)[nH]2)cc1 (configuration not stated) | – | inconclusive: 18.5 µM [inhibitor, single point]
Cc1c(NC(=O)COC(=O)c2ccc[nH]c2=O)c(=O)n(-c2ccccc2)n1C | – | inconclusive: 1.85 µM [inhibitor, partial curve, poor fit]
COc1ccccc1CNC(=O)[C@@H]1CCCN1C(=O)C1CCN(S(=O)(=O)c2ccc(C)cc2)CC1 | – | inconclusive: 0.0026 µM [inhibitor, full curve, poor fit]
Cc1ccc(C(=O)/C=C2\NCC(C)NC2=O)cc1 (configuration not stated) | – | inconclusive: 11.7 µM [inhibitor, single point]
Cc1nn(C)c(C)c1/C=N/NC(=O)CCn1cc([N+](=O)[O-])cn1 | inactive: 3.22% | –
Cc1nn(-c2ccccc2[N+](=O)[O-])c(=O)c2ccccc12 | inactive: 8.8% | –
COC(=O)C(C)Oc1ccc(-c2nccc(-c3cccs3)n2)cc1 (configuration not stated) | inactive: 6.96% | –
COc1ccc(OC)c(S(=O)(=O)N2CCCC(N3CCN(c4ccccc4)CC3)C2)c1 (configuration not stated) | – | inconclusive: 11.7 µM [inhibitor, partial curve, poor fit]
COc1ccc(CNC(=O)c2cnn3c(C(F)F)cc(C)nc23)cc1 | – | inconclusive: 20.8 µM [inhibitor, partial curve, poor fit]
CC(C)CNC(=O)C1CCN(c2ccc(S(=O)(=O)N3CCOCC3)cc2[N+](=O)[O-])CC1 | – | inconclusive: 9.28 µM [inhibitor, partial curve, poor fit]
CCOC(=O)c1cnc2c(C(F)(F)F)cccc2c1N1CCN(C)CC1 | inactive: -10.3% | –
C/C=C(/C)C(=O)O[C@H]1[C@@H](O)c2c(ccc3ccc(=O)oc23)OC1(C)C | – | inconclusive: 18.5 µM [inhibitor, single point]
Cc1cccc(NC(=O)CSc2nc3c(oc4ccccc43)c(=O)n2-c2ccccc2)c1 | – | inconclusive: 18.5 µM [inhibitor, single point]
Cc1noc(/C=C/N(C)C)c1S(=O)(=O)N1CCCC(C(=O)NCc2ccc(Cl)cc2)C1 (configuration not stated) | – | inconclusive: 20.8 µM [inhibitor, single point]
O=[N+]([O-])c1ccc2c3n([n+]([O-])c2c1)CCN=C3c1ccc(Cl)cc1 | – | inconclusive: 16.5 µM [inhibitor, single point]
COc1ccc(OC)c(CN2CCN(C(=O)c3ccc(S(=O)(=O)Nc4ccccc4F)cc3)CC2)c1 | – | inconclusive: 9.28 µM [inhibitor, single point]
O=C(c1cc2cc(F)ccc2[nH]1)N1CCN(c2ccc(F)cc2)CC1 | inactive: -27.8% | –
O=C(CCc1c[nH]c2ccccc12)N/N=C/c1ccc2c(c1)OCO2 | inactive: 0% | –
COC(=O)CNC(=O)C1CCN(C(=O)OCc2ccccc2)CC1 | – | inconclusive: 18.5 µM [inhibitor, single point]
COc1cccc(OCCOCC(O)CN2CCN(Cc3ccc(Cl)cc3)CC2)c1 (configuration not stated) | – | inconclusive: 14.7 µM [inhibitor, single point]
COc1ccc(N=C2SC(CC(=O)Nc3ccccc3)C(=O)N2CCN2CCOCC2)cc1 (configuration not stated) | inactive: -2.18% | –
N#C/C(=C/c1ccc(CNS(=O)(=O)c2ccccc2)o1)C(N)=O | – | inconclusive: 11.7 µM [inhibitor, partial curve]
COCCn1c(-c2cc(OC)c(OC)c(OC)c2)nc2nc3ccccc3nc21 | – | inconclusive: 0.294 µM [inhibitor, full curve]

Whole records, quoted from the list:
O=C(Nc1cccnc1)c1cc(-c2cccs2)on1 as listed: Potency: active: 10.4 µM
O=C(c1ccc(F)cc1)C1CCN(C(=O)Nc2ccc(F)cc2)CC1 as listed: Potency: inconclusive: 7.38 µM [inhibitor, partial curve, poor fit]
Cc1nn(-c2ccccc2[N+](=O)[O-])c(=O)c2ccccc12 as listed: activity change, negative = inhibition: inactive: 8.8%

3 neighbouring entries out of the list so far, for reference:
Compound | activity change, negative = inhibition | Potency
Cc1ccc(-c2nc(SCC(=O)NCC3CCCO3)c(-c3ccc(Cl)cc3)[nH]2)cc1 (configuration not stated) | – | inconclusive: 18.5 µM [inhibitor, single point]
Cc1c(NC(=O)COC(=O)c2ccc[nH]c2=O)c(=O)n(-c2ccccc2)n1C | – | inconclusive: 1.85 µM [inhibitor, partial curve, poor fit]
COc1ccccc1CNC(=O)[C@@H]1CCCN1C(=O)C1CCN(S(=O)(=O)c2ccc(C)cc2)CC1 | – | inconclusive: 0.0026 µM [inhibitor, full curve, poor fit]

(further entries)

Compound | activity change, negative = inhibition | Potency
COc1ccccc1CCNC(=O)CC1C(=O)NCCN1CCCc1ccccc1 (configuration not stated) | inactive: 9.08% | –
Cc1cc(Sc2nnc(N)s2)c2ccccc2n1 | inactive: -17.2% | –
CC(C)(CO)CNC(=O)c1ccc2nc(Cc3cccc(Cl)c3)oc2c1 | – | inconclusive: 18.5 µM [inhibitor, partial curve, poor fit]
CC(=O)c1cccc(NC(=O)N2CCCC2C(=O)NC2CCCCC2)c1 (configuration not stated) | – | inconclusive: 10.4 µM [inhibitor, single point]
OC(CN1CCNCC1)Cn1ccc2ccccc21 (configuration not stated) | – | inconclusive: 0.294 µM [inhibitor, full curve, poor fit]
COc1cccc(-c2nc(C=O)cs2)c1 | inactive: 4.66% | –
O=C1OC(/C(=C\Nc2cc(Cl)ccc2O)[N+](=O)[O-])c2ccccc21 (configuration not stated) | – | inconclusive: 8.28 µM [inhibitor, partial curve, poor fit]
N#CC1(NC(=O)COC(=O)c2nc(Cl)c(Cl)c(N)c2Cl)CCCCC1 | inactive: 41.6% | –
COc1cccc(CNc2cccc3cccnc23)c1O | – | inconclusive: 3.29 µM [inhibitor, partial curve, poor fit]
Cc1sc2nc(CN3CCCC3)nc(N3CCN(S(=O)(=O)c4ccccc4)CC3)c2c1C | – | active: 4.65 µM
O=C(CN(Cc1ccco1)C(=O)CNS(=O)(=O)c1ccc(F)cc1)NCc1ccco1 | – | inconclusive: 7.38 µM [inhibitor, partial curve, poor fit]
O=C(NNC(=S)NC(=O)c1ccccc1[N+](=O)[O-])c1ccccc1 | inactive: 10.3% | –
CCc1ccc(NC(=O)CCS(=O)(=O)c2ccc(Cl)cc2)cc1 | inactive: 42% | –
CC(=O)c1c(C)[nH]c(C(=O)OCC(=O)NCCc2ccc(Cl)cc2)c1C | – | inconclusive: 8.28 µM [inhibitor, partial curve, poor fit]
Brc1ccc(-c2nnc(-c3cccc(Br)c3)o2)cc1 | – | inconclusive: 2.62 µM [inhibitor, single point]
CCCN1CCN(CC(=O)Nc2nncs2)CC1 | inactive: -0.248% | –
COc1ccc(-c2cc(C(F)F)n3ncc(C(=O)Nc4cc(C)on4)c3n2)cc1 | inactive: 14.9% | –
CCc1cc2c(=O)c(-c3cscn3)coc2c(CN(C)C)c1O | – | inconclusive: 18.5 µM [inhibitor, single point]
CCC(=O)Nc1ccc(C(=O)OCc2ccc(Cl)c(Cl)c2)cc1 | – | inconclusive: 11.7 µM [inhibitor, partial curve, poor fit]
COc1cccc(/C=N/NC(=O)c2cc3c(OC)ccc(OC)c3[nH]2)c1O | – | inconclusive: 6.57 µM [inhibitor, partial curve, poor fit]
Cc1ccc(CS(=O)(=O)c2nc3c(c(N(C)C)n2)CCCC3)cc1 | – | inconclusive: 18.5 µM [inhibitor, single point]
